Source: the supplement of paper PMC10849652
The other results are listed elsewhere or left out.

Amino acid sequences for entries named in this document (tags omitted). A change or cut given only in a name is not applied to a line headed by its entry.
UniProt Q8TBZ6: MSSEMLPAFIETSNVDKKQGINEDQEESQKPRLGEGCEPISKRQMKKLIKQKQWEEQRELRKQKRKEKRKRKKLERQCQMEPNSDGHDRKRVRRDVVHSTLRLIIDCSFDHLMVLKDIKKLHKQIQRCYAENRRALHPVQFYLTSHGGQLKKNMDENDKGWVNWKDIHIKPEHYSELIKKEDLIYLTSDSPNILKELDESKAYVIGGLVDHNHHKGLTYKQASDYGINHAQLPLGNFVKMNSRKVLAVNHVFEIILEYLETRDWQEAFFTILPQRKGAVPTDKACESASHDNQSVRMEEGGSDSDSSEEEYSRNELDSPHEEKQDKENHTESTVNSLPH
UniProt O75674: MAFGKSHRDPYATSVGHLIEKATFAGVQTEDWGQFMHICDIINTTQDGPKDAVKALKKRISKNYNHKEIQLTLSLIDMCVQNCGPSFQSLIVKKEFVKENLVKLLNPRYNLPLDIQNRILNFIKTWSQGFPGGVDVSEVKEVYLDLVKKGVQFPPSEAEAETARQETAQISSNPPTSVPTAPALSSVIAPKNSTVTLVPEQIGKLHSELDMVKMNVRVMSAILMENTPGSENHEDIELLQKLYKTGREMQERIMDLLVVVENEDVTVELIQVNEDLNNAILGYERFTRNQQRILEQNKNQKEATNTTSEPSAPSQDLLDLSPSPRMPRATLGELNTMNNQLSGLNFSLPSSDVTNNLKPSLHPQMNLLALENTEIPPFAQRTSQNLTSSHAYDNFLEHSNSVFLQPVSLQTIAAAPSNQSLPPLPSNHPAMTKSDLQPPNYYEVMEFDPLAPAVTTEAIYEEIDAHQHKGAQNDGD
UniProt Q9P0U1: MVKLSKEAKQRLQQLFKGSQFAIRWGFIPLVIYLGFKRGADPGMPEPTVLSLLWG
UniProt Q629K1: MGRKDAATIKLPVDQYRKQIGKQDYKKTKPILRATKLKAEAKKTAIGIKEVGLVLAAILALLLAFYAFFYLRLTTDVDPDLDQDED
UniProt A5PLN9: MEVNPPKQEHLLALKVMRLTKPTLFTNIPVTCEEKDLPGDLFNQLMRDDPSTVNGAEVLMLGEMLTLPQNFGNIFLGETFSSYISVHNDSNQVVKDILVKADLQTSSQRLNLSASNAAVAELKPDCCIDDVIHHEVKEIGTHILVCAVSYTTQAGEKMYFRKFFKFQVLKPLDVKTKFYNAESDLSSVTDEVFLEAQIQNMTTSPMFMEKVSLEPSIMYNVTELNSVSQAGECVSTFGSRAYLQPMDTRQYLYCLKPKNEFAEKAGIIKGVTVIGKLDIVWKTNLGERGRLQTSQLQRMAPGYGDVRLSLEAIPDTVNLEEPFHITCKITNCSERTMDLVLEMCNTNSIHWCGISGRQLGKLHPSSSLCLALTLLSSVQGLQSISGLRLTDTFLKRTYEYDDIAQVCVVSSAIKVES
UniProt Q15643: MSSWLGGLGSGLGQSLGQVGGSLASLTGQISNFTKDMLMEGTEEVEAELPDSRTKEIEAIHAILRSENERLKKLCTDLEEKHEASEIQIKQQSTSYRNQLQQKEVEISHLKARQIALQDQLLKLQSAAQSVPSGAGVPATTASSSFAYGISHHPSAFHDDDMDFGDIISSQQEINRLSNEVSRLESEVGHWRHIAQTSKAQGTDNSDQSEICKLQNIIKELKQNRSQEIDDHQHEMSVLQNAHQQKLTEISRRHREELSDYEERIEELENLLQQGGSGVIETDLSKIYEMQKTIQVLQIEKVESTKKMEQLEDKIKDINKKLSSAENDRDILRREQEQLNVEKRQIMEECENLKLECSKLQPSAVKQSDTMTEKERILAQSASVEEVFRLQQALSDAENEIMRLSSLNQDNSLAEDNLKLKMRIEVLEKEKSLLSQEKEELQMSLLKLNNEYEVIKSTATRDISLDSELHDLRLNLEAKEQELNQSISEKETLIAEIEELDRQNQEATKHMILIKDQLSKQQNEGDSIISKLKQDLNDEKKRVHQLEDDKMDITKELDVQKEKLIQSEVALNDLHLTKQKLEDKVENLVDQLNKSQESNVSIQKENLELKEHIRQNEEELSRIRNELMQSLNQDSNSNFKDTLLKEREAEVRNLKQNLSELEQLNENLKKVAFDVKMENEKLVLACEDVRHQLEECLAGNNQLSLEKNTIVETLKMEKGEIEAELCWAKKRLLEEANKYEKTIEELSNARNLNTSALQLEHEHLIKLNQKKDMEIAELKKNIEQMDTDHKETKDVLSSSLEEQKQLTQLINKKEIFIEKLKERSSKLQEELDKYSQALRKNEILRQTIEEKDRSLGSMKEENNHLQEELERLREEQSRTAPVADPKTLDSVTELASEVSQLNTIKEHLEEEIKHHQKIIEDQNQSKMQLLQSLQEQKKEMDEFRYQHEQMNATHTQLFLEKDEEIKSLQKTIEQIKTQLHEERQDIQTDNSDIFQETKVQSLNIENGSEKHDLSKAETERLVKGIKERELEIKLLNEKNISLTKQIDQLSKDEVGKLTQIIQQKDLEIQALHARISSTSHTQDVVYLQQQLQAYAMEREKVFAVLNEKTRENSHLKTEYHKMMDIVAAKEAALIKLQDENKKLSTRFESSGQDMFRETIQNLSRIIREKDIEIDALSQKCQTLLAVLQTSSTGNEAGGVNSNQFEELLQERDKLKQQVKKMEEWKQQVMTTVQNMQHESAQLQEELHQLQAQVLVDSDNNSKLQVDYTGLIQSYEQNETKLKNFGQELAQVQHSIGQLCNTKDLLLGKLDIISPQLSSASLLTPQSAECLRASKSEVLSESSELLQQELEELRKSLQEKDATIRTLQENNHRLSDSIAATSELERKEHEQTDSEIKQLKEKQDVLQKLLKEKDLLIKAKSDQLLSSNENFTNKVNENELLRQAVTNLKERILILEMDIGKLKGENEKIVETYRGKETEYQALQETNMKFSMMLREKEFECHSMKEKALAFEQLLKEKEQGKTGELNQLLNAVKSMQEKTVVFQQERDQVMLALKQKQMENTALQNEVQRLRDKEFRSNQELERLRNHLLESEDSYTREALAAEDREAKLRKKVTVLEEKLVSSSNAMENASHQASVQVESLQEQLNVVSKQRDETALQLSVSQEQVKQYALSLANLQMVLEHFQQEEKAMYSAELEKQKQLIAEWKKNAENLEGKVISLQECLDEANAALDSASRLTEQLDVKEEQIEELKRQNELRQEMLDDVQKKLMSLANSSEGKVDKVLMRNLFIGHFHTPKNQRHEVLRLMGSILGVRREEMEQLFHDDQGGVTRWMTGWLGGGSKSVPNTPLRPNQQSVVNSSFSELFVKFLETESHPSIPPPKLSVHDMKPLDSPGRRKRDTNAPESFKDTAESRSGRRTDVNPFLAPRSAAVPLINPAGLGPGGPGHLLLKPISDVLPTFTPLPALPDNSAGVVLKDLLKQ
UniProt Q9C035: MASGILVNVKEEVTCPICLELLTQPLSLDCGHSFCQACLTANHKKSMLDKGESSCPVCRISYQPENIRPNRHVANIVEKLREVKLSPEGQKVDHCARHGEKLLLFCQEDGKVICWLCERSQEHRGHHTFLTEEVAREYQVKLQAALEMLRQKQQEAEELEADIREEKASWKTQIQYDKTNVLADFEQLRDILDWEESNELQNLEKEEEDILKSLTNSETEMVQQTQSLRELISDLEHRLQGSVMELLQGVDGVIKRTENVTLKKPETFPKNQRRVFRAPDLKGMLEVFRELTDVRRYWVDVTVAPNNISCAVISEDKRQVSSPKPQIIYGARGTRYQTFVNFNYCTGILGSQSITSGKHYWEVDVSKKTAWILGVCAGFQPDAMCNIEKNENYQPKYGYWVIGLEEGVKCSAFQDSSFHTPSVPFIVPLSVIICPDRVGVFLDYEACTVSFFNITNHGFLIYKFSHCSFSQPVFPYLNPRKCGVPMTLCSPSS
UniProt O43617, whole entry, looked up: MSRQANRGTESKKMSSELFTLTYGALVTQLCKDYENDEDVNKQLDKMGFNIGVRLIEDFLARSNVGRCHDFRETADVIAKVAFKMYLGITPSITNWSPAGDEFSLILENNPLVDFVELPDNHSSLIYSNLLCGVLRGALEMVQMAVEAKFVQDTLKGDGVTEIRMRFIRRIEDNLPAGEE
UniProt Q13595: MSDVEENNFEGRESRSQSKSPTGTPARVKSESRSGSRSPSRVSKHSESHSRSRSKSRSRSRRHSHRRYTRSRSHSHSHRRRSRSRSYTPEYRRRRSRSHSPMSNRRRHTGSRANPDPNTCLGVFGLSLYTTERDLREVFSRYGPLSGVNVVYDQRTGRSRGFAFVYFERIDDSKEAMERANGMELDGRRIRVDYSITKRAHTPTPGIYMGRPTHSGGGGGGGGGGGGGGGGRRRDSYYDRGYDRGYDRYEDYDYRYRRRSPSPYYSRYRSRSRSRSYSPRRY
UniProt Q9UHF7: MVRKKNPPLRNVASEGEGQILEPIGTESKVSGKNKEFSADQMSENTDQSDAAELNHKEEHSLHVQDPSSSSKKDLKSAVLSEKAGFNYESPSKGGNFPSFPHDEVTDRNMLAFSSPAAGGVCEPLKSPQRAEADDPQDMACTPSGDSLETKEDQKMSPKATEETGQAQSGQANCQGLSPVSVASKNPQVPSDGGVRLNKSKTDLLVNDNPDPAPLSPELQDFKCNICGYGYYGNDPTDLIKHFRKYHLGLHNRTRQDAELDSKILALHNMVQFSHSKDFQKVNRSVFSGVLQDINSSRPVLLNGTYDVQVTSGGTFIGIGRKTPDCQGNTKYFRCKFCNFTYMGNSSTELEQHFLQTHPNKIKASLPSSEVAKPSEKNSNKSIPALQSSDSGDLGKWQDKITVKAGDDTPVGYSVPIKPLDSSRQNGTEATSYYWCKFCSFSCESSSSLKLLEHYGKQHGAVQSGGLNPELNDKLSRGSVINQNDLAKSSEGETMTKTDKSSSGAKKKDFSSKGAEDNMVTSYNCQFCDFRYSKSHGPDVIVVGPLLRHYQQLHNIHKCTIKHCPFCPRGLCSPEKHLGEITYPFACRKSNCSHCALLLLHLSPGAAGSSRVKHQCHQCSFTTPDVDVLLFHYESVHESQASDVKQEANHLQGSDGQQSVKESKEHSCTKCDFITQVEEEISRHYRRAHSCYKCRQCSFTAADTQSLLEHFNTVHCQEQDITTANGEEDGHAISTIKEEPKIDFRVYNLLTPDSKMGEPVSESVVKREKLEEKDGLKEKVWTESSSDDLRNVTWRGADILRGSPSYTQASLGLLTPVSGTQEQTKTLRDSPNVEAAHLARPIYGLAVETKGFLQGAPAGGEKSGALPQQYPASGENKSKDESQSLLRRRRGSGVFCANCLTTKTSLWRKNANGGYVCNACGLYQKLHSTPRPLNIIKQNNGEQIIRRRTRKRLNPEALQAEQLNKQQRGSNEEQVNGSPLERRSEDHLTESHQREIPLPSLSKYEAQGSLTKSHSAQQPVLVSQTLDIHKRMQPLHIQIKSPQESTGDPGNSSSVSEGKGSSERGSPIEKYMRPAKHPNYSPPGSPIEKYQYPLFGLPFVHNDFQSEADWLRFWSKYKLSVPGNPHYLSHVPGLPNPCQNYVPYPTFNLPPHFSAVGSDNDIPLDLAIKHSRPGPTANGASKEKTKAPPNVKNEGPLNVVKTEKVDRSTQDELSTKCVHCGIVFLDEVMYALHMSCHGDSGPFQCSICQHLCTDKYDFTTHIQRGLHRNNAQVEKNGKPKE
UniProt Q14134: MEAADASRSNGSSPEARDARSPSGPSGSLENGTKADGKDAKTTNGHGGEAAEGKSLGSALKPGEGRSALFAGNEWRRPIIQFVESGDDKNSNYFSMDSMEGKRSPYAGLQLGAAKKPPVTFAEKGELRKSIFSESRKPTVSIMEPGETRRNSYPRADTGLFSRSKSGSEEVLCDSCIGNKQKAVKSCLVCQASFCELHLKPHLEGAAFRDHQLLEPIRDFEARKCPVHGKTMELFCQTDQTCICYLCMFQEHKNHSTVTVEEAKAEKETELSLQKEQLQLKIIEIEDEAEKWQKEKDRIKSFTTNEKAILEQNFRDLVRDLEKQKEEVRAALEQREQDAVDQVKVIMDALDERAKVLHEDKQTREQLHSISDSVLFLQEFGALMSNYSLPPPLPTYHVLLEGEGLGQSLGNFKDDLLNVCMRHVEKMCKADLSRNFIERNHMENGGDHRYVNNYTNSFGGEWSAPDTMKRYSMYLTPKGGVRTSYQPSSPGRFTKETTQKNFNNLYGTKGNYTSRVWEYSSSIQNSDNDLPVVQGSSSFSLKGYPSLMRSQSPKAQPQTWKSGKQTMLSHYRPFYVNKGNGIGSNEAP
UniProt O75865, whole entry, looked up: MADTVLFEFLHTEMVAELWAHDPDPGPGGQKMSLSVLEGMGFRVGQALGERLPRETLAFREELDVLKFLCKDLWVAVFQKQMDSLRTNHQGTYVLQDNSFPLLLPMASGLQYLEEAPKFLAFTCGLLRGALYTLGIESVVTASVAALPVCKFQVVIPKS

How the values were obtained:
Assay in all cases: log2 fold change, soluble protein after heating vs DMSO (PISA); higher = thermal stabilisation; K562 cells, 10 uM, 30 min; active = over 0.2 and 3.5 SD of the protein, either way, in both replicates (recomputed)
[1] = compound: CN1CCN(CCOc2cc(OC3CCOCC3)c3c(Nc4c(Cl)ccc5c4OCO5)ncnc3c2)CC1 [saracatinib]
Summary of the method: (§1)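 K562 cells at 2×10^6 cells/mL were treated for 30 min with 10 μM compound, and aliquots were heated for 3 min over 48°C-58°C before pooling. Extraction used PBS with 0.5% NP-40 at 4°C, and soluble protein was the supernatant after 21,000xg for 90 min, measured by TMTpro 16plex LC-MS/MS with channel sums equalised. Thermal stability values, relative to control samples and from duplicates, are log2 fold changes.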

[2] = compound: CN1CCN(c2nc(C3=C(c4c[nH]c5ccccc45)C(=O)NC3=O)c3ccccc3n2)CC1 [sotrastaurin]
Summary of the method: as §1

[3] = compound: CN1CCc2c(c3ccccc3n2Cc2ccc(C(=O)NO)cc2)C1 [Tubastatin A]
Summary of the method: as §1

[4] = compound: CNC(=O)C1=CC=CC=C1NC2=NC(=NC=C2Cl)NC3=C(C=C(C=C3)N4CCOCC4)OC
Summary of the method: as §1

[5] = compound: CNC(=O)c1ccc(Nc2ncc(C(F)(F)F)c(NCc3nccnc3N(C)S(C)(=O)=O)n2)cc1 [defactinib]
Summary of the method: as §1

[6] = compound: CNCc1ccc(-c2[nH]c3cc(F)cc4c3c2CCNC4=O)cc1 [rucaparib]
Summary of the method: as §1

[7] = compound: CNc1nc(-c2ccc3c(N)n[nH]c3c2)cc(N2C[C@@H](C(=O)NC3CCCCC3)CC[C@H]2C)n1
Summary of the method: as §1

[8] = compound: COC(=O)N[C@@H](C)CNc1nccc(-c2cn(C(C)C)nc2-c2cc(Cl)cc(NS(C)(=O)=O)c2F)n1 [encorafenib]
Summary of the method: as §1

[9] = compound: COC(=O)[C@H](CCSC)NC(=O)C1=C(C=C(C=C1)NC[C@H](CS)N)C2=CC=CC=C2
Summary of the method: as §1

[10] = compound: COC1=CC=C(C=C1)CN2C=CC3=C2C=C(C=C3)C(=O)NO
Summary of the method: as §1

[11] = compound: CON(C)C(=O)N1N=C(c2cc(F)ccc2F)S[C@@]1(CCCN)c1ccccc1 [filanesib]
Summary of the method: as §1

[12] = compound: CO[C@H]1C[C@@H]2CC[C@@H](C)[C@@](O)(O2)C(=O)C(=O)N2CCCC[C@H]2C(=O)O[C@H]([C@H](C)C[C@@H]2CC[C@H](n3cnnn3)[C@H](OC)C2)CC(=O)[C@H](C)/C=C(\C)[C@@H](O)[C@@H](OC)C(=O)[C@H](C)C[C@H](C)/C=C/C=C/C=C/1C [zotarolimus]
Summary of the method: as §1

[13] = compound: COc1cc(C(=O)O)ccc1NC(=O)[C@@H]1N[C@@H](CC(C)(C)C)[C@](C#N)(c2ccc(Cl)cc2F)[C@H]1c1cccc(Cl)c1F [idasanutlin]
Summary of the method: as §1

[14] = compound: COc1cc(Nc2ncc3c(n2)-c2ccc(Cl)cc2C(c2c(F)cccc2OC)=NC3)ccc1C(=O)O [alisertib]
Summary of the method: as §1

[15] = compound: COc1cc2nc(-c3cc(F)ccc3O)nc(N[C@@H]3CNC[C@H]3C(C)(C)O)c2cc1OC
Summary of the method: as §1

[16] = compound: COc1cc2ncnc(Nc3ccc(F)c(Cl)c3)c2cc1OCCCN1CCOCC1 [gefitinib]
Summary of the method: as §1

[17] = compound: COc1cccc2cc(-c3nc([C@H]4CC[C@H](C(=O)O)CC4)n4ncnc(N)c34)[nH]c12
Summary of the method: as §1

[18] = compound: CS(=O)(=O)CCNCc1ccc(-c2ccc3ncnc(Nc4ccc(OCc5cccc(F)c5)c(Cl)c4)c3c2)o1 [lapatinib]
Summary of the method: as §1

[19] = compound: CS(=O)(=O)N1CCN(Cc2cc3nc(-c4cccc5[nH]ncc45)nc(N4CCOCC4)c3s2)CC1 [pictilisib]
Summary of the method: as §1

[20] = compound: CN1CC[C@H](c2c(O)cc(O)c3c(=O)cc(-c4ccccc4Cl)oc23)[C@H](O)C1 [alvocidib]
Summary of the method: as §1

Measured: log2 fold change

TP53BP1 isoform 2 (UniProt Q12888)
inactive: [1] 0.01 | [2] -0.112 | [3] 0.116 | [4] 0.061 | [5] -0.073 | [6] 0.025 | [7] -0.022 | [8] 0.059 | [9] 0.036 | [10] 0.006 | [11] 0.059 | [12] 0.054 | [13] 0.04 | [14] 0.046 | [15] -0.089 | [16] -0.014 | [17] -0.041 | [18] 0.028 | [19] 0

TRMT10A (UniProt Q8TBZ6)
inactive: [1] -0.028 | [2] -0.024 | [3] -0.038 | [4] 0.054 | [5] -0.06 | [6] 0.016 | [7] 0.032 | [8] 0.026 | [9] 0.036 | [10] -0.195 | [11] -0.134 | [12] 0.054 | [13] -0.081 | [14] 0.048 | [15] -0.006 | [16] -0.025 | [17] 0.028 | [18] 0.03 | [19] 0.093

TOM1L1 (UniProt O75674)
inactive: [1] -0.003 | [2] 0.019 | [3] -0.066 | [4] -0.043 | [5] -0.042 | [6] -0.02 | [7] -0.026 | [8] -0.042 | [9] -0.041 | [10] -0.006 | [11] 0.06 | [12] 0.008 | [13] -0.142 | [14] -0.073 | [15] 0.061 | [16] 0.056 | [17] -0.051 | [18] -0.007 | [19] -0.076

TPP1 (UniProt O14773)
inactive: [1] -0.008 | [2] -0.005 | [3] 0.005 | [4] 0.007 | [5] 0.049 | [6] -0.013 | [7] -0.013 | [8] 0.018 | [9] 0.011 | [10] 0.024 | [11] -0.175 | [12] 0 | [13] -0.008 | [14] 0.168 | [15] -0.072 | [16] -0.039 | [17] 0.087 | [18] -0.026 | [19] 0.011

TOMM7 (UniProt Q9P0U1)
inactive: [1] -0.008 | [2] 0.048 | [3] -0.005 | [4] -0.023 | [5] -0.047 | [6] -0.02 | [7] -0.002 | [8] -0.035 | [9] -0.046 | [10] -0.014 | [11] -0.069 | [14] -0.197 | [15] -0.099 | [16] 0.049 | [17] 0.087 | [18] 0.027 | [19] 0.076

TRIQK (UniProt Q629K1)
inactive: [1] -0.014 | [2] -0.112 | [3] -0.094 | [7] -0.045 | [10] -0.002 | [11] 0.1 | [12] -0.08 | [14] -0.142 | [17] 0.106

TRAPPC13 isoform 5 (UniProt A5PLN9)
inactive: [1] 0.045 | [2] -0.061 | [3] 0.026 | [4] 0.04 | [5] -0.051 | [6] 0.072 | [7] -0.045 | [8] 0.217 | [9] -0.099 | [10] 0.094 | [11] 0.052 | [12] 0.045 | [13] -0.016 | [14] -0.123 | [15] 0.009 | [16] 0.005 | [17] -0.046 | [18] 0.116 | [19] 0.015

TNPO2 (UniProt O14787)
inactive: [1] 0.066 | [2] -0.055 | [3] 0.03 | [4] 0.013 | [5] -0.188 | [6] -0.051 | [7] 0.054 | [8] 0.133 | [9] -0.079 | [10] -0.022 | [11] -0.005 | [12] 0.065 | [13] -0.194 | [14] -0.071 | [15] -0.069 | [16] 0.027 | [17] -0.038 | [18] -0.048 | [19] -0.076

TRIP11 (UniProt Q15643)
inactive: [1] -0.064 | [2] -0.121 | [3] -0.005 | [4] 0.005 | [5] 0.019 | [6] -0.087 | [7] 0.131 | [8] -0.027 | [9] -0.153 | [10] -0.016 | [11] -0.034 | [13] 0.126 | [14] -0.031 | [15] -0.035 | [16] -0.03 | [17] -0.001 | [18] -0.01 | [19] 0.106

Quoted from above (four entries):
TPP1 (UniProt O14773)
inactive: [1] -0.008 | [2] -0.005 | [3] 0.005 | [4] 0.007 | [5] 0.049 | [6] -0.013 | [7] -0.013 | [8] 0.018 | [9] 0.011 | [10] 0.024 | [11] -0.175 | [12] 0 | [13] -0.008 | [14] 0.168 | [15] -0.072 | [16] -0.039 | [17] 0.087 | [18] -0.026 | [19] 0.011

TOMM7 (UniProt Q9P0U1)
inactive: [1] -0.008 | [2] 0.048 | [3] -0.005 | [4] -0.023 | [5] -0.047 | [6] -0.02 | [7] -0.002 | [8] -0.035 | [9] -0.046 | [10] -0.014 | [11] -0.069 | [14] -0.197 | [15] -0.099 | [16] 0.049 | [17] 0.087 | [18] 0.027 | [19] 0.076

TRIQK (UniProt Q629K1)
inactive: [1] -0.014 | [2] -0.112 | [3] -0.094 | [7] -0.045 | [10] -0.002 | [11] 0.1 | [12] -0.08 | [14] -0.142 | [17] 0.106

TRAPPC13 isoform 5 (UniProt A5PLN9)
inactive: [1] 0.045 | [2] -0.061 | [3] 0.026 | [4] 0.04 | [5] -0.051 | [6] 0.072 | [7] -0.045 | [8] 0.217 | [9] -0.099 | [10] 0.094 | [11] 0.052 | [12] 0.045 | [13] -0.016 | [14] -0.123 | [15] 0.009 | [16] 0.005 | [17] -0.046 | [18] 0.116 | [19] 0.015

(continued)

TRIM21 (UniProt P19474)
inactive: [1] -0.043 | [20] -0.077 | [3] 0.057 | [4] -0.004 | [7] 0.022 | [12] -0.11 | [13] -0.196 | [14] -0.068 | [15] 0.007 | [16] -0.01 | [17] 0.094 | [18] -0.034

TRIM5 (UniProt Q9C035)
inactive: [1] -0.429 | [2] 0.103 | [3] -0.102 | [4] -0.093 | [5] -0.108 | [7] -0.017 | [9] 0.019 | [11] 0.121 | [12] -0.066 | [13] -0.086

TRAPPC3 (UniProt O43617)
inactive: [1] 0.063 | [2] 0.001 | [3] -0.026 | [4] 0 | [5] -0.072 | [6] -0.056 | [7] -0.014 | [8] 0.015 | [9] 0.013 | [10] -0.141 | [11] -0.069 | [12] -0.037 | [13] -0.025 | [14] -0.055 | [15] 0.012 | [16] 0.007 | [17] 0.067 | [18] 0.023 | [19] 0.023

TRA2A (UniProt Q13595)
inactive: [3] -0.02 | [16] 0.094

TRPS1 isoform 2 (UniProt Q9UHF7)
inactive: [20] 0.097 | [4] -0.447 | [12] -0.298

TRIM29 (UniProt Q14134)
inactive: [6] -0.027 | [8] -0.077 | [14] -0.02 | [17] -0.025

TRAPPC6A isoform 2 (UniProt O75865)
inactive: [20] -0.251 | [4] -0.078 | [6] -0.03 | [8] 0.063 | [12] 0.117 | [14] -0.011 | [15] 0.045 | [16] 0.108 | [17] 0.007 | [18] 0.13
